This passage reports binding results from PMC12065913.

By UniProt entry, the sequences of proteins in these tests, tags left out.
UniProt P0A6Y8: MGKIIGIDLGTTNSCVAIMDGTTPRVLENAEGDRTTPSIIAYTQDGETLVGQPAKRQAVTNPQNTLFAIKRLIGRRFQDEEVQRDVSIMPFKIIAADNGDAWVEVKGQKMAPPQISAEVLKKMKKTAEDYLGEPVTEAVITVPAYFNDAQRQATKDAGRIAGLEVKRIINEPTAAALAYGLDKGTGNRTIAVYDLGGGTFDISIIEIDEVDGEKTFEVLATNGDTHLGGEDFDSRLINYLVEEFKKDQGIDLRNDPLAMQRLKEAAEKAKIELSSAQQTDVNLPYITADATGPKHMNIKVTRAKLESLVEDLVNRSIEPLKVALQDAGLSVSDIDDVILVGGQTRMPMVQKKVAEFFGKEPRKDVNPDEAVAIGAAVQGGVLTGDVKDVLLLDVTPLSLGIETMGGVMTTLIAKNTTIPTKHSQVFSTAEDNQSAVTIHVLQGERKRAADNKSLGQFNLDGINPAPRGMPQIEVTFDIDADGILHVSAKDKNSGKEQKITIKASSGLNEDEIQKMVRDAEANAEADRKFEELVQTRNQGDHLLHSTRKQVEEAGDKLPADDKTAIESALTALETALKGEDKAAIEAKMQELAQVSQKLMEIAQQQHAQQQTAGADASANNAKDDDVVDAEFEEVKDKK
UniProt P0A850: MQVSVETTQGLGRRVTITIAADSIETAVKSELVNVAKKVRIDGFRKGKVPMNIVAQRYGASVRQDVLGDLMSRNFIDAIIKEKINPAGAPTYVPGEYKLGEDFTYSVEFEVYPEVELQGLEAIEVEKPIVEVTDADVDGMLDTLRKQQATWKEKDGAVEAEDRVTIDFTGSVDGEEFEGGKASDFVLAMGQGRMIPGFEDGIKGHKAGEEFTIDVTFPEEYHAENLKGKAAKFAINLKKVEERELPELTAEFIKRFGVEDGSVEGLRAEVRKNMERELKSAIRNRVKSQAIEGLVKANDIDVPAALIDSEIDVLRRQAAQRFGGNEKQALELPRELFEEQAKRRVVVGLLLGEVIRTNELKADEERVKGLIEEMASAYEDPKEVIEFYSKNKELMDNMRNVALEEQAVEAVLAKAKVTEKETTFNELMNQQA

No constants are given. Whether binding was seen depends on the method and setting. Some entries that bind do so weakly or less than the wild type.

The target of assay [1] is DnaK (E. coli (endogenous in MC4100)) (UniProt P0A6Y8). The experiment in a line: selective ribosome profiling (immunoprecipitation of chaperone-bound ribosome-nascent chain complexes, sequencing of the mRNA footprints); DnaK immunoprecipitated with anti-DnaK antibody on Dynabeads from ATP-depleted (hexokinase) lysate after MNase digest and sucrose cushion; selected translatome normalised by the total translatome.

In assay [2] the target is Trigger Factor (tig-TEV-Avi) (E. coli) (UniProt P0A850). The experiment in a line: selective ribosome profiling (SeRP); affinity purification of TF-TEV-Avi with ribosome-nascent chain complexes from E. coli lysate, no chemical cross-linking; ribosome footprints sequenced, enrichment over the total translatome.

B1: nascent UvrA (protein, UniProt P0A698 1-940)
chain: MDKIEVRGARTHNLKNINLVIPRDKLIVVTGLSGSGKSSLAFDTLYAEGQRRYVESLSAYARQFLSLMEKPDVDHIEGLSPAISIEQKSTSHNPRSTVGTITEIHDYLRLLFARVGEPRCPDHDVPLAAQTVSQMVDNVLSQPEGKRLMLLAPIIKERKGEHTKTLENLASQGYIRARIDGEVCDLSDPPKLELQKKHTIEVVVDRFKVRDDLTQRLAESFETALELSGGTAVVADMDDPKAEELLFSANFACPICGYSMRELEPRLFSFNNPAGACPTCDGLGVQQYFDPDRVIQNPELSLAGGAIRGWDRRNFYYFQMLKSLADHYKFDVEAPWGSLSANVHKVVLYGSGKENIEFKYMNDRGDTSIRRHPFEGVLHNMERRYKETESSAVREELAKFISNRPCASCEGTRLRREARHVYVENTPLPAISDMSIGHAMEFFNNLKLAGQRAKIAEKILKEIGDRLKFLVNVGLNYLTLSRSAETLSGGEAQRIRLASQIGAGLVGVMYVLDEPSIGLHQRDNERLLGTLIHLRDLGNTVIVVEHDEDAIRAADHVIDIGPGAGVHGGEVVAEGPLEAIMAVPESLTGQYMSGKRKIEVPKKRVPANPEKVLKLTGARGNNLKDVTLTLPVGLFTCITGVSGSGKSTLINDTLFPIAQRQLNGATIAEPAPYRDIQGLEHFDKVIDIDQSPIGRTPRSNPATYTGVFTPVRELFAGVPESRARGYTPGRFSFNVRGGRCEACQGDGVIKVEMHFLPDIYVPCDQCKGKRYNRETLEIKYKGKTIHEVLDMTIEEAREFFDAVPALARKLQTLMDVGLTYIRLGQSATTLSGGEAQRVKLARELSKRGTGQTLYILDEPTTGLHFADIQQLLDVLHKLRDQGNTIVVIEHNLDVIKTADWIVDLGPEGGSGGGEILVSGTPETVAECEASHTARFLKPML
For the molecule B1, the binding result in assay [1] is “binds”.

B2: nascent UvrB (protein, UniProt P0A8F8 1-673)
chain: MSKPFKLNSAFKPSGDQPEAIRRLEEGLEDGLAHQTLLGVTGSGKTFTIANVIADLQRPTMVLAPNKTLAAQLYGEMKEFFPENAVEYFVSYYDYYQPEAYVPSSDTFIEKDASVNEHIEQMRLSATKAMLERRDVVVVASVSAIYGLGDPDLYLKMMLHLTVGMIIDQRAILRRLAELQYARNDQAFQRGTFRVRGEVIDIFPAESDDIALRVELFDEEVERLSLFDPLTGQIVSTIPRFTIYPKTHYVTPRERIVQAMEEIKEELAARRKVLLENNKLLEEQRLTQRTQFDLEMMNELGYCSGIENYSRFLSGRGPGEPPPTLFDYLPADGLLVVDESHVTIPQIGGMYRGDRARKETLVEYGFRLPSALDNRPLKFEEFEALAPQTIYVSATPGNYELEKSGGDVVDQVVRPTGLLDPIIEVRPVATQVDDLLSEIRQRAAINERVLVTTLTKRMAEDLTEYLEEHGERVRYLHSDIDTVERMEIIRDLRLGEFDVLVGINLLREGLDMPEVSLVAILDADKEGFLRSERSLIQTIGRAARNVNGKAILYGDKITPSMAKAIGETERRREKQQKYNEEHGITPQGLNKKVVDILALGQNIAKTKAKGRGKSRPIVEPDNVPMDMSPKALQQKIHELEGLMMQHAQNLEFEEAAQIRDQLHQLRELFIAAS
As for B2, in assay [1], the binding entry is “binds”.

B3: nascent TldD (protein, UniProt P0AGG8 1-481)
chain: MSLNLVSEQLLAANGLKHQDLFAILGQLAERRLDYGDLYFQSSYHESWVLEDRIIKDGSYNIDQGVGVRAISGEKTGFAYADQISLLALEQSAQAARTIVRDSGDGKVQTLGAVEHSPLYTSVDPLQSMSREEKLDILRRVDKVAREADKRVQEVTASLSGVYELILVAATDGTLAADVRPLVRLSVSVLVEEDGKRERGASGGGGRFGYEFFLADLDGEVRADAWAKEAVRMALVNLSAVAAPAGTMPVVLGAGWPGVLLHEAVGHGLEGDFNRRGTSVFSGQVGELVASELCTVVDDGTMVDRRGSVAIDDEGTPGQYNVLIENGILKGYMQDKLNARLMGMTPTGNGRRESYAHLPMPRMTNTYMLPGKSTPQEIIESVEYGIYAPNFGGGQVDITSGKFVFSTSEAYLIENGKVTKPVKGATLIGSGIETMQQISMVGNDLKLDNGVGVCGKEGQSLPVGVGQPTLKVDNLTVGGTA
On to B3, for which the binding entry in assay [2] is reported as “binds”.

B4: nascent AmiA (protein, UniProt P36548 35-289)
chain: KDELLKTSNGHSKPKAKKSGGKRVVVLDPGHGGIDTGAIGRNGSKEKHVVLAIAKNVRSILRNHGIDARLTRSGDTFIPLYDRVEIAHKHGADLFMSIHADGFTNPKAAGASVFALSNRGASSAMAKYLSERENRADEVAGKKATDKDHLLQQVLFDLVQTDTIKNSLTLGSHILKKIKPVHKLHSRNTEQAAFVVLKSPSVPSVLVETSFITNPEEERLLGTAAFRQKIATAIAEGVISYFHWFDNQKAHSKKR
In the case of B4, the binding result in assay [2] is “binds”.

B5: nascent PheT (protein, UniProt P07395 1-795)
chain: MKFSELWLREWVNPAIDSDALANQITMAGLEVDGVEPVAGSFHGVVVGEVVECAQHPNADKLRVTKVNVGGDRLLDIVCGAPNCRQGLRVAVATIGAVLPGDFKIKAAKLRGEPSEGMLCSFSELGISDDHSGIIELPADAPIGTDIREYLKLDDNTIEISVTPNRADCLGIIGVARDVAVLNQLPLVQPEIVPVGATIDDTLPITVEAPEACPRYLGRVVKGINVKAPTPLWMKEKLRRCGIRSIDAVVDVTNYVLLELGQPMHAFDKDRIEGGIVVRMAKEGETLVLLDGTEAKLNADTLVIADHNKALAMGGIFGGEHSGVNDETQNVLLECAFFSPLSITGRARRHGLHTDASHRYERGVDPALQHKAMERATRLLIDICGGEAGPVIDITNEATLPKRATITLRRSKLDRLIGHHIADEQVTDILRRLGCEVTEGKDEWQAVAPSWRFDMEIEEDLVEEVARVYGYNNIPDEPVQASLIMGTHREADLSLKRVKTLLNDKGYQEVITYSFVDPKVQQMIHPGVEALLLPSPISVEMSAMRLSLWTGLLATVVYNQNRQQNRVRIFESGLRFVPDTQAPLGIRQDLMLAGVICGNRYEEHWNLAKETVDFYDLKGDLESVLDLTGKLNEVEFRAEANPALHPGQSAAIYLKGERIGFVGVVHPELERKLDLNGRTLVFELEWNKLADRVVPQAREISRFPANRRDIAVVVAENVPAADILSECKKVGVNQVVGVNLFDVYRGKGVAEGYKSLAISLILQDTSRTLEEEEIAATVAKCVEALKERFQASLRD
With B5, the binding entry in assay [2] is given as “binds”.

B6: nascent YhjK (protein, UniProt P37649 1-662)
chain: MRVSRSLTIKQMAMVAAVVLVFVFIFCTVLLFHLVQQNRYNTATQLESIARSVREPLSSAILKGDIPEAEAILASIKPAGVVSRADVVLPNQFQALRKSFIPERPVPVMVTRLFELPVQISLGVYSLERPANPQPIAYLVLQADSFRMYKFVMSTLSTLVTIYLLLSLILTVAISWCINRLILHPLRNIARELNAIPAKELVGHQLALPRLHQDDEIGMLVRSYNLNQQLLQRHYEEQNENAMRFPVSDLPNKALLMEMLEQVVARKQTTALMIITCETLRDTAGVLKEAQREILLLTLVEKLKSVLSPRMILAQISGYDFAVIANGVQEPWHAITLGQQVLTIMSERLPIERIQLRPHCSIGVAMFYGDLTAEQLYSRAISAAFTARHKGKNQIQFFDPQQMEAAQKRLTEESDILNALENHQFAIWLQPQVEMTSGKLVSAEVLLRIQQPDGSWDLPDGLIDRIECCGLMVTVGHWVLEESCRLLAAWQERGIMLPLSVNLSALQLMHPNMVADMLELLTRYRIQPGTLILEVTESRRIDDPHAAVAILRPLRNAGVRVALDDFGMGYAGLRQLQHMKSLPIDVLKIDKMFVEGLPGDSSMIAAIIMLAQSLNLQMIAEGVETEAQRDWLAKAGVGIAQGFLFARPLPIEIFEESYLEEK
Take B6: the binding result in assay [1] is “binds”.

B7: nascent RpoH (protein, UniProt P0AGB3 1-284)
chain: MTDKMQSLALAPVGNLDSYIRAANAWPMLSADEERALAEKLHYHGDLEAAKTLILSHLRFVVHIARNYAGYGLPQADLIQEGNIGLMKAVRRFNPEVGVRLVSFAVHWIKAEIHEYVLRNWRIVKVATTKAQRKLFFNLRKTKQRLGWFNQDEVEMVARELGVTSKDVREMESRMAAQDMTFDLSSDDDSDSQPMAPVLYLQDKSSNFADGIEDDNWEEQAANRLTDAMQGLDERSQDIIRARWLDEDNKSTLQELADRYGVSAERVRQLEKNAMKKLRAAIEA
As for B7, the binding result in assay [1] is given as “binds”.

B8: nascent PurF (protein, UniProt P0AG16 1-505)
chain: MCGIVGIAGVMPVNQSIYDALTVLQHRGQDAAGIITIDANNCFRLRKANGLVSDVFEARHMQRLQGNMGIGHVRYPTAGSSSASEAQPFYVNSPYGITLAHNGNLTNAHELRKKLFEEKRRHINTTSDSEILLNIFASELDNFRHYPLEADNIFAAIAATNRLIRGAYACVAMIIGHGMVAFRDPNGIRPLVLGKRDIDENRTEYMVASESVALDTLGFDFLRDVAPGEAIYITEEGQLFTRQCADNPVSNPCLFEYVYFARPDSFIDKISVYSARVNMGTKLGEKIAREWEDLDIDVVIPIPETSCDIALEIARILGKPYRQGFVKNRYVGRTFIMPGQQLRRKSVRRKLNANRAEFRDKNVLLVDDSIVRGTTSEQIIEMAREAGAKKVYLASAAPEIRFPNVYGIDMPSATELIAHGREVDEIRQIIGADGLIFQDLNDLIDAVRAENPDIQQFECSVFNGVYVTKDVDQGYLDFLDTLRNDDAKAVQRQNEVENLEMHNEG
B8: the binding entry in assay [2] is given as “binds”.

B9: nascent TrpD (protein, UniProt P00904 1-531)
chain: MADILLLDNIDSFTYNLADQLRSNGHNVVIYRNHIPAQTLIERLATMSNPVLMLSPGPGVPSEAGCMPELLTRLRGKLPIIGICLGHQAIVEAYGGYVGQAGEILHGKASSIEHDGQAMFAGLTNPLPVARYHSLVGSNIPAGLTINAHFNGMVMAVRHDADRVCGFQFHPESILTTQGARLLEQTLAWAQQKLEPANTLQPILEKLYQAQTLSQQESHQLFSAVVRGELKPEQLAAALVSMKIRGEHPNEIAGAATALLENAAPFPRPDYLFADIVGTGGDGSNSINISTASAFVAAACGLKVAKHGNRSVSSKSGSSDLLAAFGINLDMNADKSRQALDELGVCFLFAPKYHTGFRHAMPVRQQLKTRTLFNVLGPLINPAHPPLALIGVYSPELVLPIAETLRVLGYQRAAVVHSGGMDEVSLHAPTIVAELHDGEIKSYQLTAEDFGLTPYHQEQLAGGTPEENRDILTRLLQGKGDAAHEAAVAANVAMLMRLHGHEDLQANAQTVLEVLRSGSAYDRVTALAARG
Regarding B9, the binding result in assay [2] is reported as “binds”.

B10: nascent RibD (protein, UniProt P25539 1-367)
chain: MQDEYYMARALKLAQRGRFTTHPNPNVGCVIVKDGEIVGEGYHQRAGEPHAEVHALRMAGEKAKGATAYVTLEPCSHHGRTPPCCDALIAAGVARVVASMQDPNPQVAGRGLYRLQQAGIDVSHGLMMSEAEQLNKGFLKRMRTGFPYIQLKLGASLDGRTAMASGESQWITSPQARRDVQLLRAQSHAILTSSATVLADDPALTVRWSELDEQTQALYPQQNLRQPIRIVIDSQNRVTPVHRIVQQPGETWFARTQEDSREWPETVRTLLIPEHKGHLDLVVLMMQLGKQQINSIWVEAGPTLAGALLQAGLVDELIVYIAPKLLGSDARGLCTLPGLEKLADAPQFKFKEIRHVGPDVCLHLVGA
With B10, the binding entry in assay [2] was “binds”.
